According to US20070293517A1, “Derivatives Of Chemotherapeutic Agents With A Formaldehyde Releasing Moiety” (RAMOT AT TEL AVIV UNIVERSITY LTD., priority 2004, published 2007):
Some results were stated once for a whole list of compounds, not compound by compound.

Experiments:
[1] = system: sensitive and resistant uterine cancer cells (MES-SA, MES-SA DXS); assay: Proliferation/survival, sensitive and resistant uterine cancer cells (both lines); type: cell-based, human
Procedure: (§1) Cells: The human breast cancer cell lines MCF-7 and MCF-7 DX, were obtained from Dr. R. Supino (Laboratorio Oncologia, Milano, Italy); the murine 3LLD122 highly metastatic Lewis lung carcinoma cell line was obtained from Dr. Eisenbach L, the Weizmann Inst., Israel. […]
(§2) Proliferation assay: cells at a density of 3-5×10^4 cells/ml in 200 μl medium supplemented with 10% FCS were seeded in tissue culture 96-well plates for 24 hours, and were then exposed for 72 hours to a novel derivative of a chemotherapeutic agent (in quadruplicate) as specified. […] The ethanol was thereafter discarded, 200 μl of 10 μg/ml HOECHST fluorescent dye (Sigma) solubilized in PBS were added and the fluorescence was measured at 390-460 nm with a FluoStar fluorometer. […] The optical density of the wells was measured with a microplate reader at 540 nm.
(§3) IC50 and IC90 values were determined from the best-fitted curve where the percentages of survival were 50 or 90 respectively.

[2] = system: colon cancer cells (LS-1034 and HT-29); assay: Survival of colon cancer cells (both lines); type: cell-based, human
Procedure: as §1, §2, §3

O=c1c(F)cn([C@H]2CCCO2)c(=O)n1CO [AN-436, 5-fluoro-1-((R)-tetrahydrofuran-2-yl)-3-(hydroxymethyl)pyrimidine-2,4(1H,3H)-dione]
fold more potent than the parent compound tegafur [1]: 5-14 fold
fold more potent than tegafur, based on IC90 values [2]: at least 5 fold
